Experimental data as given in PubChem BioAssay AID624297 (National Center for Advancing Translational Sciences (NCATS), 2012).
Screen size: about 340,000 compounds; about 6,200 (1.8%) were called active. This list was built around the results that the source calls inconclusive (neither active nor inactive); the mix of calls is not that of the screen. The call rests on the fitted dose curve; in most records, active means well fitted activation curve with a large enough effect; inconclusive means small, poorly fitted or top-dose-only effect; inactive means no such curve, though single readings can be large or run the other way. A potency beside an inconclusive call is a rough fit, not a confirmed value.

Assay: A quantitative high throughput screen for small molecules that induce DNA re-replication in SW480 colon adenocarcinoma cells. Further: nearly all actives have a fitted effect of over 55% in size. On re-replication activation: % of control where 0% means no effect.
Settings: Hoechst DNA content imaging, 48 h; re-replication activation: at 46.1 µM (top of the series)
Outline: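 First, 250 cells per well were seeded. Next, compound or vehicle (23 nL) was pinned in, plates sat 48 hr at 37 C. Finally Hoechst was added for 40 min before fluorescence scanning.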
Potency means the concentration at half of the fitted maximal effect.

Question: For `CCS(=O)(=O)N1Cc2ccccc2CC1C(=O)Nc1nnc(SCc2ccc(F)cc2)s1` (stereo not drawn), which Potency is on record?
Answer: The Potency was inconclusive: 14.6 µM [activator, partial curve, poor fit].

Question: With `Cc1ccc(S(=O)(=O)N2CCCC2CNC(=O)C(=O)NCc2cccs2)cc1` (stereo not drawn) as the molecule, how does the Potency read?
Answer: The Potency was inconclusive: 25.9 µM [activator, partial curve, poor fit].

Question: For `Cc1ccc(NC(=O)CSc2ccc3c(c2)OCCO3)c(O)c1`, which Potency is on record?
Answer: Its Potency is inconclusive: 3.66 µM [activator, partial curve, poor fit].

Question: With `COc1ccc(-c2csc(NC(=O)c3ccc(OCC(=O)N4CCOCC4)c(OC)c3)n2)cc1OC` as the molecule, how does the “re-replication activation” value read?
Answer: The value was inactive: -1.63%.

Question: With `CCCc1ccc(S(=O)(=O)Nc2ccc(C)c(NS(C)(=O)=O)c2)cc1` as the molecule, how does the Potency read?
Answer: The Potency was inconclusive: 23.1 µM [activator, single point].

Question: With `CCc1nnc(NC(=O)CSc2nc3c(cc2C#N)CCC3)s1` as the molecule, how does the Potency read?
Answer: The Potency was inconclusive: 5.8 µM [activator, full curve, poor fit].

Question: Which Potency does the source give for `O=C(/C(=C/c1ccc(Cl)cc1)c1nc2ccccc2[nH]1)c1cccs1` here?
Answer: Its Potency is inconclusive: 6.51 µM [activator, single point].

Question: For `Fc1ccc(-c2csc(Nc3ccccn3)n2)cc1`, which re-replication activation is on record?
Answer: The re-replication activation was inconclusive: 1.72% [activator].

Question: With `CCCSC(=S)c1c(C)[nH]n(-c2ccccc2)c1=O` as the molecule, how does the Potency read?
Answer: The Potency was inconclusive: 20.6 µM [activator, single point].

Question: For `CCN(CC)S(=O)(=O)c1ccc(N2CCOCC2)c(NC(=S)NC(=O)c2ccco2)c1`, which “re-replication activation” value is on record?
Answer: Its value is inactive: 0.378%.

Question: With `CCOc1ccccc1-n1cnc(C#N)c1N` as the molecule, how does the Potency read?
Answer: The Potency was inconclusive: 1.64 µM [activator, partial curve].

Question: With `CCCC(=O)Nc1ccc(C(=O)N/N=C/c2ccc([N+](=O)[O-])o2)cc1` as the molecule, how does the Potency read?
Answer: The Potency was active: 16.4 µM.

Question: Which Potency does the source give for `Cc1cc(C)cc(NC(=O)CSc2nc3[nH]ncc3c(=O)[nH]2)c1` here?
Answer: The Potency was inconclusive: 25.9 µM [activator, single point].

Question: With `CCOc1ccc2nc(N3CCOCC3)nc(C)c2c1` as the molecule, how does the Potency read?
Answer: Its Potency is inconclusive: 23.1 µM [activator, single point].

Question: With `N#CCC(=O)Nc1ccc(C(=O)OCC(=O)N(C2CCCCC2)C2CCCCC2)cc1` as the molecule, how does the Potency read?
Answer: The Potency was inconclusive: 16.4 µM [activator, single point].

Question: For `C[C@H](CO)N1C[C@H](C)[C@@H](CN(C)C(=O)Nc2ccc3c(c2)OCO3)Oc2c(NC(=O)Nc3ccccc3)cccc2C1=O`, which “re-replication activation” value is on record?
Answer: The value was inactive: 23%.

Question: For `O=[N+]([O-])c1ccc(NC(=S)N2CCc3ccccc3C2)cc1`, which “re-replication activation” value is on record?
Answer: Its value is inactive: -65.9%.

Question: With `CC(Oc1ccc2c(-c3ccccc3)cc(=O)oc2c1)C(=O)NCC(O)c1ccccc1` (stereo not drawn) as the molecule, how does the Potency read?
Answer: The Potency was inconclusive: 6.51 µM [activator, single point].
